Experimental data published in patent publication US12281335B2, “Methods and compositions for delivery of viral vectors across the blood-brain barrier” (priority 2017, dated 2025).
Ends that are not written are not given here.

The substances below were run on AAV9 virion (assay: Phage display selection in vivo and on AAV9-coated plates, sequencing of phages). Settings: 40 individual phages sequenced, results from 38 clones.
In the case of “AIGDKAYTLRPT-NH2 (C-terminal amide) [PB5-14]”, the “number of sequenced phages in which the peptide was detected” value (from here on “number of sequenced phages”) is reported as 3 phages.
With QFAALPVRAHYG-NH2 [PB5-3] the “number of sequenced phages” value was 6 phages.
With “ARSLEPAPSRHS-NH2 (C-terminal amide) [PB5-5]” the “number of sequenced phages” value was 3 phages.
